Counter-ions that a name gives are not always drawn. The list shows a part of the results. The calls rarely recur for the same compound in another form.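 Kinases, fused to nanoluciferase, were expressed in K562 cells; luminescence was measured every 4 h from 2 to 18 h as percent of control (DMSO = 100%, positive control = 0%). A time point is decreased if signal falls significantly (2 sigma). Hits were called by the authors by a rule that is not shown; the count of time points alone does not decide it.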
Tests used:
Assay in all cases: kinase-Nluc reporter destabilization hit call (1 = scored as downregulated) (binary); higher = compound decreases kinase abundance
Conditions in all cases: K562; 2-18 h
PDPK1 = PDPK1 (UniProt O15530)
PIK4CA = PIK4CA (UniProt P42356)
PIK4CB = PIK4CB (UniProt Q9UBF8)
PLK1 = PLK1 (UniProt P53350)
PRKAA1 = PRKAA1 (UniProt Q13131)
PRKCA = PRKCA (UniProt P17252)
PTK2 = PTK2 (UniProt Q05397)
PTK2B = PTK2B (UniProt Q14289)
RAF1 = RAF1 (UniProt P04049)
[1] = target: RAF1_S257L (clone: RAF1_mut) (UniProt P04049)
RET = RET (UniProt P07949)
[2] = target: RET_M918T (clone: RET_mut) (UniProt P07949)
RIOK1 = RIOK1 (UniProt Q9BRS2)
RIPK1 = RIPK1 (UniProt Q13546)
RIPK2 = RIPK2 (UniProt O43353)
ROR2 = ROR2 (UniProt Q01974)
RPS6KA1 = RPS6KA1 (UniProt Q15418)
SPHK1 = SPHK1 (UniProt Q9NYA1)
SRC = SRC (UniProt P12931)
STK24 = STK24 (UniProt Q9Y6E0)

By UniProt entry, the sequences of proteins in these tests, tags left out. Where a name states a change or a piece, a line headed by the entry shows the natural chain unless it says otherwise.
UniProt Q9UBF8: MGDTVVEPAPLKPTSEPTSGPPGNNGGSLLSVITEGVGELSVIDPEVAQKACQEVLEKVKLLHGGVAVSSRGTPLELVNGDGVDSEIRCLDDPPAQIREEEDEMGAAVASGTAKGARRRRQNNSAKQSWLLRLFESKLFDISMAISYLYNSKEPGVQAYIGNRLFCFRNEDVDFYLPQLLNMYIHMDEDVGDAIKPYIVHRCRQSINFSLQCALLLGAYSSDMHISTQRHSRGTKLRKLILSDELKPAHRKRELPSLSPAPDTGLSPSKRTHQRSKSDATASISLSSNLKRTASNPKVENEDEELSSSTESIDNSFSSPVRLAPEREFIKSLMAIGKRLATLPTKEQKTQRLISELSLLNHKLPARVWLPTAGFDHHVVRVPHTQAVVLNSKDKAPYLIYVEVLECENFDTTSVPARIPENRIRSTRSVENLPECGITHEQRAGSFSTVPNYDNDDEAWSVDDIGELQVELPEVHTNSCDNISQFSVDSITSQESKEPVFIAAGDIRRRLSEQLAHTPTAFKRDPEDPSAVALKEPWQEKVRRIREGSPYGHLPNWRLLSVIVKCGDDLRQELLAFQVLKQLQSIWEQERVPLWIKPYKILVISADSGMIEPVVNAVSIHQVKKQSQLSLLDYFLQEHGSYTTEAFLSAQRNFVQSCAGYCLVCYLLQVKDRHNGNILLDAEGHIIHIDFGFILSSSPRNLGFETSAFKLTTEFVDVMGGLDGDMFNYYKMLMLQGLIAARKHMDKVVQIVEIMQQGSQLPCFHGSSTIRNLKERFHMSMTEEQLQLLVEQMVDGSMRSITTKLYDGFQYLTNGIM
UniProt Q14289, whole entry, looked up: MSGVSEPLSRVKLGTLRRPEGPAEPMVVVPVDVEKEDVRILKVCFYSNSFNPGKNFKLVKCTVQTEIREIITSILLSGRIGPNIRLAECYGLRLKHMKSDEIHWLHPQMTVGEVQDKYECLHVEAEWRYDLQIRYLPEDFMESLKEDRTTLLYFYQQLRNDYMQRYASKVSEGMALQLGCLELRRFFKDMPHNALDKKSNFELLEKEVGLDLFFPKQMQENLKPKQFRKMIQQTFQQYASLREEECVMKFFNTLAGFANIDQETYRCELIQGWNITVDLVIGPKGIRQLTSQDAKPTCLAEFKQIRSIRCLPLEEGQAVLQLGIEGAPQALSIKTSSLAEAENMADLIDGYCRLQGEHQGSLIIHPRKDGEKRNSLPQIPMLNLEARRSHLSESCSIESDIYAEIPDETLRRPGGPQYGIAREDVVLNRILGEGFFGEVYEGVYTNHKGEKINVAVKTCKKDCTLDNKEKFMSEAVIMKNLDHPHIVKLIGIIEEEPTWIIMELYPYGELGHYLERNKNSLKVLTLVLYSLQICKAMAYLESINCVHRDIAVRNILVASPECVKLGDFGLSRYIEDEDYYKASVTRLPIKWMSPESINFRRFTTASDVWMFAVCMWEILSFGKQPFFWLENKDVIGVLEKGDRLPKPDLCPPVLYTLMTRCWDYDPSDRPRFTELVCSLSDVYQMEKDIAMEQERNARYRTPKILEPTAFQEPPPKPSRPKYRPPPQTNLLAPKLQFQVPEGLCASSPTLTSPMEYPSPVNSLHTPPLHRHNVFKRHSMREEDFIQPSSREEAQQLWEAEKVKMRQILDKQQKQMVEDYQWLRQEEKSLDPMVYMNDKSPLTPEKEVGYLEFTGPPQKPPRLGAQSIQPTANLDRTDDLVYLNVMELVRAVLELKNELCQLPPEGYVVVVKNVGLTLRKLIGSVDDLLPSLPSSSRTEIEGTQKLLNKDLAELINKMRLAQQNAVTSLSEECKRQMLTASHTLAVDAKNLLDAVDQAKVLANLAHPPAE
UniProt P07949, whole entry, looked up: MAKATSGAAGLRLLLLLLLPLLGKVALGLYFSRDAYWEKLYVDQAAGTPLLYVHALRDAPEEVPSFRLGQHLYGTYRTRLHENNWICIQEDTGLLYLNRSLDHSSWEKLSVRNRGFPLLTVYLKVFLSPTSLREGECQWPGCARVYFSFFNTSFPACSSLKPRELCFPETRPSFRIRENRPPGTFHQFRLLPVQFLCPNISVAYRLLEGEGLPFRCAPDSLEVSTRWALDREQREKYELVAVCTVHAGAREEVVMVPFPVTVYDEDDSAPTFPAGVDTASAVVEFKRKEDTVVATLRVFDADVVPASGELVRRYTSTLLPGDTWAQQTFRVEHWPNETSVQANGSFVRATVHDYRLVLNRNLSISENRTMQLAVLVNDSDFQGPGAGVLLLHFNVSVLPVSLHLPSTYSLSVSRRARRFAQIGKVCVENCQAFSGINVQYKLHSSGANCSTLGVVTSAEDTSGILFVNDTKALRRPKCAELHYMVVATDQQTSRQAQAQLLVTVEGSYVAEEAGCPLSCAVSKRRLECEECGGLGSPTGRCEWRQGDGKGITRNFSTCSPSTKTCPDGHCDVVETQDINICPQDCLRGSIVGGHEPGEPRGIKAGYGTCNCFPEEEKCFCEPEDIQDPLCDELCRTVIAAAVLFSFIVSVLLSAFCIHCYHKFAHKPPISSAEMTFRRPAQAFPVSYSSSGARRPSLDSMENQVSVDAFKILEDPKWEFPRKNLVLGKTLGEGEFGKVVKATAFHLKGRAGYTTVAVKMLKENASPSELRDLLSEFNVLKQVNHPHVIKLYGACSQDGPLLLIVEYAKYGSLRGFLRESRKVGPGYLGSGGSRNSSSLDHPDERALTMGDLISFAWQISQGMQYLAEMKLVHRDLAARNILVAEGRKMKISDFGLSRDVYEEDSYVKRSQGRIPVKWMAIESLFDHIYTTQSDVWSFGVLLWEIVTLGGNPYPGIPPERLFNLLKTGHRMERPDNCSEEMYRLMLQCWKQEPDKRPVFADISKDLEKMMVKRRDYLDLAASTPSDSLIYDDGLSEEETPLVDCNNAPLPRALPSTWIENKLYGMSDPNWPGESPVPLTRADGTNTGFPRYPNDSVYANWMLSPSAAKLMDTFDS
UniProt P07949, whole entry M918T, looked up: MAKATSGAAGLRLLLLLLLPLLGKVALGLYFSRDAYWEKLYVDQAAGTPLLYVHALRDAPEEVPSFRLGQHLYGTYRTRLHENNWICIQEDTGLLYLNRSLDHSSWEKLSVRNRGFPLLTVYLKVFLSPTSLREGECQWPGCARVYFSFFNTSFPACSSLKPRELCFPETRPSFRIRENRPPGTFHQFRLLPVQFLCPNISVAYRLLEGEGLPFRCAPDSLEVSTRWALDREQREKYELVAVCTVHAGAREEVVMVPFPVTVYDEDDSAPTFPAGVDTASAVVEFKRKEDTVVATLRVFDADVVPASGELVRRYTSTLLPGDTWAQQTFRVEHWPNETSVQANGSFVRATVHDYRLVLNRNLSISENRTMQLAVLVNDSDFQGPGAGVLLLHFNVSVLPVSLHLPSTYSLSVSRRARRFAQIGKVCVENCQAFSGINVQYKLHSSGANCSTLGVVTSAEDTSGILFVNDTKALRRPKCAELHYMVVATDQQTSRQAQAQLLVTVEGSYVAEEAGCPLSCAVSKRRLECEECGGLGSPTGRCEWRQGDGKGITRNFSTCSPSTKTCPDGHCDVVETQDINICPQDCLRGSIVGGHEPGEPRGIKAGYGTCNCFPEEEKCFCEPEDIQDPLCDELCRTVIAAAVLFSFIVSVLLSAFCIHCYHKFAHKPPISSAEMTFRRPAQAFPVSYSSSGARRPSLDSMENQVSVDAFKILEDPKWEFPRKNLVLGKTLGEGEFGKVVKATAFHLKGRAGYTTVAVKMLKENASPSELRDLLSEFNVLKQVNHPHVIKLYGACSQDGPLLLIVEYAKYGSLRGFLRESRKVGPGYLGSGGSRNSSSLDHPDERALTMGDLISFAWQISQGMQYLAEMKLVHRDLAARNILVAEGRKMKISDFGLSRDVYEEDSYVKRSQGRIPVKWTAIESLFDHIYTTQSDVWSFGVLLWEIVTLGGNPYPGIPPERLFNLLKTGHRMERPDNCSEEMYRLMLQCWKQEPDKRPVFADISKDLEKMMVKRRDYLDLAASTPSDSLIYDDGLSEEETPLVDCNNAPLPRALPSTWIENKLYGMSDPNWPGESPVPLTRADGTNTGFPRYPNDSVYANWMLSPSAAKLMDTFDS
UniProt Q9BRS2: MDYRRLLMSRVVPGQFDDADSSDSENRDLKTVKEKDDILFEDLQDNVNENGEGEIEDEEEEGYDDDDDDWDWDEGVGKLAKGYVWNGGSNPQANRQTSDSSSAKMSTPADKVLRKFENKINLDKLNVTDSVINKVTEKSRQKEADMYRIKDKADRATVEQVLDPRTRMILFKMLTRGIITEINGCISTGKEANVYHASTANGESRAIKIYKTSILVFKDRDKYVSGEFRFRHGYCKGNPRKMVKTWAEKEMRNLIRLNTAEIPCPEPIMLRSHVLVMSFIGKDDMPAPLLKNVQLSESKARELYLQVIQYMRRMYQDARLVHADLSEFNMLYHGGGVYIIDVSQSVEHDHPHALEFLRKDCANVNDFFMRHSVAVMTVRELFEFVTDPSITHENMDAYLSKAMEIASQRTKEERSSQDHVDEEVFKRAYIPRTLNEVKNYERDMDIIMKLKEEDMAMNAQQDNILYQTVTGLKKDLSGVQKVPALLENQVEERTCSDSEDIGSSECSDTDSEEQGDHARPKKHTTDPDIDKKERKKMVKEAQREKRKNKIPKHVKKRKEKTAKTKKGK
UniProt Q15418, whole entry: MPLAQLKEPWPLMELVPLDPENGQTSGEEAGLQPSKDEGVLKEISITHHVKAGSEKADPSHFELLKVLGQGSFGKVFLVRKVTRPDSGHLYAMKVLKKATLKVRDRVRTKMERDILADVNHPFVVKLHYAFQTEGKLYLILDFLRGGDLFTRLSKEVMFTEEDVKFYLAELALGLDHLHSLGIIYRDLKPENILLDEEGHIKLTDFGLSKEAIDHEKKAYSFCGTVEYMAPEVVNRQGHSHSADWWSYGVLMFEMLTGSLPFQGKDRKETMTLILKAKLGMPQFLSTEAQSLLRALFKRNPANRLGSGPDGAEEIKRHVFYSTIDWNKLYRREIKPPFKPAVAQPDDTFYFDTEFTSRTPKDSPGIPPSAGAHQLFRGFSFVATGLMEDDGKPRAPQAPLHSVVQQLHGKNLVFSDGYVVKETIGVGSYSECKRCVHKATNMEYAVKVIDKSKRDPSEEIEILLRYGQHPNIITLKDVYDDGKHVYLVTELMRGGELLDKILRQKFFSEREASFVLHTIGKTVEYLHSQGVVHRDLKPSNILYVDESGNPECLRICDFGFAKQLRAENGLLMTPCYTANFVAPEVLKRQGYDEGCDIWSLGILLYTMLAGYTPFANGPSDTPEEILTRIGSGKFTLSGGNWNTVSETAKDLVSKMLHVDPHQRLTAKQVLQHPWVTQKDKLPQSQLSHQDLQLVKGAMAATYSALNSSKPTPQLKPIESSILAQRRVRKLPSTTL
UniProt Q9Y6E0: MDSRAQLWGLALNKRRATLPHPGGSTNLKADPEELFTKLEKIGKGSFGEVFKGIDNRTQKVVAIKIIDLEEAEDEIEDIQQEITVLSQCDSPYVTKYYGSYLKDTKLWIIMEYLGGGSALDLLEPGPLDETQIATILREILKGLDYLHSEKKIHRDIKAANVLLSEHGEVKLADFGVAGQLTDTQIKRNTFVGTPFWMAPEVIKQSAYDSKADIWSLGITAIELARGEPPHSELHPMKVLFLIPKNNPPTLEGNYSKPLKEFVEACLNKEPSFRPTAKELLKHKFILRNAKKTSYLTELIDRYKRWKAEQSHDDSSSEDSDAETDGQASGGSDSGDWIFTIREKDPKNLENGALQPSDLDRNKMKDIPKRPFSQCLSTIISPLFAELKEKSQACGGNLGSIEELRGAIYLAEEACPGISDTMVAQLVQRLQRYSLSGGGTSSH

Measured: kinase-Nluc reporter destabilization hit call

C[C@@]1(c2ncncc2F)NC(=O)c2cc(-c3cn[nH]c3)ccc21 (10 µM)
inactive: PDPK1 = 0 | PIK4CA 0 | PIK4CB 0 | PLK1 = 0 | PRKAA1 = 0 | PRKCA 0 | PTK2 = 0 | PTK2B 0 | RAF1 = 0 | [1] 0 | RET 0 | [2] 0 | RIOK1 = 0 | RIPK1 = 0 | RIPK2 = 0 | ROR2 = 0 | RPS6KA1 = 0 | SPHK1 = 0 | SRC 0 | STK24 = 0

N#Cc1c(C2CCNCC2)cc(-c2c(O)cccc2OCC2CC2)nc1N [ACHP (Hydrochloride)] (10 µM)
inactive: PDPK1 = 0 | PIK4CA 0 | PIK4CB 0 | PLK1 = 0 | PRKAA1 = 0 | PRKCA 0 | PTK2 = 0 | PTK2B 0 | RAF1 = 0 | [1] 0 | RET 0 | [2] 0 | RIOK1 = 0 | RIPK1 = 0 | RIPK2 = 0 | ROR2 = 0 | RPS6KA1 = 0 | SPHK1 = 0 | SRC 0 | STK24 = 0

Nc1ncnc2c1c(-c1ccc(Oc3ccccc3)cc1)nn2C1CCCC1 (2.5 µM)
inactive: PDPK1 = 0 | PIK4CA 0 | PIK4CB 0 | PLK1 = 0 | PRKAA1 = 0 | PRKCA 0 | PTK2 = 0 | PTK2B 0 | RAF1 = 0 | [1] 0 | RET 0 | [2] 0 | RIOK1 = 0 | RIPK1 = 0 | RIPK2 = 0 | ROR2 = 0 | RPS6KA1 = 0 | SPHK1 = 0 | SRC 0 | STK24 = 0

Two neighbouring records already listed, for reference:
N#Cc1c(C2CCNCC2)cc(-c2c(O)cccc2OCC2CC2)nc1N [ACHP (Hydrochloride)] (10 µM)
inactive: PDPK1 = 0 | PIK4CA 0 | PIK4CB 0 | PLK1 = 0 | PRKAA1 = 0 | PRKCA 0 | PTK2 = 0 | PTK2B 0 | RAF1 = 0 | [1] 0 | RET 0 | [2] 0 | RIOK1 = 0 | RIPK1 = 0 | RIPK2 = 0 | ROR2 = 0 | RPS6KA1 = 0 | SPHK1 = 0 | SRC 0 | STK24 = 0

Nc1ncnc2c1c(-c1ccc(Oc3ccccc3)cc1)nn2C1CCCC1 (2.5 µM)
inactive: PDPK1 = 0 | PIK4CA 0 | PIK4CB 0 | PLK1 = 0 | PRKAA1 = 0 | PRKCA 0 | PTK2 = 0 | PTK2B 0 | RAF1 = 0 | [1] 0 | RET 0 | [2] 0 | RIOK1 = 0 | RIPK1 = 0 | RIPK2 = 0 | ROR2 = 0 | RPS6KA1 = 0 | SPHK1 = 0 | SRC 0 | STK24 = 0

More entries

Oc1cc2c(cc1O)C(Cc1cccc3ccccc13)NCC2 (centres undefined) (10 µM)
inactive: PDPK1 = 0 | PIK4CA 0 | PIK4CB 0 | PLK1 = 0 | PRKAA1 = 0 | PRKCA 0 | PTK2 = 0 | PTK2B 0 | RAF1 = 0 | [1] 0 | RET 0 | [2] 0 | RIOK1 = 0 | RIPK1 = 0 | RIPK2 = 0 | ROR2 = 0 | RPS6KA1 = 0 | SPHK1 = 0 | SRC 0 | STK24 = 0

Cc1ccccc1-c1c2nccc(-c3ccc(F)cc3F)c2cc[n+]1[O-] (10 µM)
inactive: PDPK1 = 0 | PIK4CA 0 | PIK4CB 0 | PLK1 = 0 | PRKAA1 = 0 | PRKCA 0 | PTK2 = 0 | PTK2B 0 | RAF1 = 0 | [1] 0 | RET 0 | [2] 0 | RIOK1 = 0 | RIPK1 = 0 | RIPK2 = 0 | ROR2 = 0 | RPS6KA1 = 0 | SPHK1 = 0 | SRC 0 | STK24 = 0

CC[C@@H](Oc1nc(Oc2cc(C)cc(-c3cccc(CN)c3)c2)c(F)cc1F)C(=O)O (10 µM)
inactive: PDPK1 = 0 | PIK4CA 0 | PIK4CB 0 | PLK1 = 0 | PRKAA1 = 0 | PRKCA 0 | PTK2 = 0 | PTK2B 0 | RAF1 = 0 | [1] 0 | RET 0 | [2] 0 | RIOK1 = 0 | RIPK1 = 0 | RIPK2 = 0 | ROR2 = 0 | RPS6KA1 = 0 | SPHK1 = 0 | SRC 0 | STK24 = 0

C[C@@H]1CCN(C(=O)CC#N)C[C@@H]1N(C)c1ncnc2[nH]ccc12 [Tofacitinib] (10 µM)
inactive: PDPK1 = 0 | PIK4CA 0 | PIK4CB 0 | PLK1 = 0 | PRKAA1 = 0 | PRKCA 0 | PTK2 = 0 | RAF1 = 0 | [1] 0 | RET 0 | [2] 0 | RIOK1 = 0 | RIPK1 = 0 | RIPK2 = 0 | ROR2 = 0 | RPS6KA1 = 0 | SPHK1 = 0 | SRC 0 | STK24 = 0

C=CC(=O)Nc1cccc(Nc2nc(Nc3ccc(NC4CN(CCF)C4)cc3OC)ncc2C(F)(F)F)c1 (2.5 µM)
inactive: PDPK1 = 0 | PIK4CA 0 | PIK4CB 0 | PLK1 = 0 | PRKAA1 = 0 | PRKCA 0 | PTK2 = 0 | PTK2B 0 | RAF1 = 0 | [1] 0 | RET 0 | [2] 0 | RIOK1 = 0 | RIPK1 = 0 | RIPK2 = 0 | ROR2 = 0 | RPS6KA1 = 0 | SPHK1 = 0 | SRC 0 | STK24 = 0

COc1cc(Nc2ncc(F)c(Nc3ccc4c(n3)NC(=O)C(C)(C)O4)n2)cc(OC)c1OC (10 µM)
inactive: PDPK1 = 0 | PIK4CA 0 | PIK4CB 0 | PLK1 = 0 | PRKAA1 = 0 | PRKCA 0 | PTK2 = 0 | RAF1 = 0 | [1] 0 | RIOK1 = 0 | RIPK1 = 0 | RIPK2 = 0 | ROR2 = 0 | RPS6KA1 = 0 | SPHK1 = 0 | SRC 0 | STK24 = 0

CCC(C)N1c2ccccc2C(=O)N(C)c2cnc(Nc3ccc(C(=O)N4CCC(N5CCN(C)CC5)CC4)cc3OC)nc21 (centres undefined) (2.5 µM)
inactive: PDPK1 = 0 | PIK4CA 0 | PIK4CB 0 | PLK1 = 0 | PRKAA1 = 0 | PRKCA 0 | PTK2 = 0 | PTK2B 0 | RAF1 = 0 | [1] 0 | RET 0 | [2] 0 | RIOK1 = 0 | RIPK1 = 0 | RIPK2 = 0 | ROR2 = 0 | RPS6KA1 = 0 | SPHK1 = 0 | SRC 0 | STK24 = 0

CN(C)C(=O)Cn1cc(-c2ccc(-c3cncc4ccccc34)cc2)cn1 (10 µM)
inactive: PDPK1 = 0 | PIK4CA 0 | PIK4CB 0 | PLK1 = 0 | PRKAA1 = 0 | PRKCA 0 | PTK2 = 0 | PTK2B 0 | RAF1 = 0 | [1] 0 | RET 0 | [2] 0 | RIOK1 = 0 | RIPK1 = 0 | RIPK2 = 0 | ROR2 = 0 | RPS6KA1 = 0 | SPHK1 = 0 | SRC 0 | STK24 = 0

Cc1[nH]c(/C=C2\C(=O)Nc3ccccc32)c(C)c1CCC(=O)O [(Z)-Orantinib] (10 µM)
inactive: PDPK1 = 0 | PIK4CA 0 | PIK4CB 0 | PLK1 = 0 | PRKAA1 = 0 | PRKCA 0 | PTK2 = 0 | PTK2B 0 | RAF1 = 0 | [1] 0 | RET 0 | [2] 0 | RIOK1 = 0 | RIPK1 = 0 | RIPK2 = 0 | ROR2 = 0 | SPHK1 = 0 | SRC 0 | STK24 = 0

CCc1cc2c(cc1N1CCC(N3CCOCC3)CC1)C(C)(C)c1[nH]c3cc(C#N)ccc3c1C2=O [Alectinib (Hydrochloride)] (2 µM)
inactive: PDPK1 = 0 | PIK4CA 0 | PIK4CB 0 | PLK1 = 0 | PRKAA1 = 0 | PRKCA 0 | PTK2 = 0 | PTK2B 0 | RAF1 = 0 | [1] 0 | RET 0 | [2] 0 | RIOK1 = 0 | RIPK1 = 0 | RIPK2 = 0 | ROR2 = 0 | RPS6KA1 = 0 | SPHK1 = 0 | SRC 0 | STK24 = 0

CC#CC(=O)Nc1ccc2ncnc(Nc3cccc(Br)c3)c2c1 (10 µM)
inactive: PDPK1 = 0 | PIK4CA 0 | PIK4CB 0 | PLK1 = 0 | PRKAA1 = 0 | PRKCA 0 | PTK2 = 0 | PTK2B 0 | RAF1 = 0 | [1] 0 | RET 0 | [2] 0 | RIOK1 = 0 | RIPK1 = 0 | RIPK2 = 0 | ROR2 = 0 | RPS6KA1 = 0 | SPHK1 = 0 | SRC 0 | STK24 = 0

Oc1cc(O)c2cc(O)c(-c3cc(O)c(O)c(O)c3)[o+]c2c1 [Delphinidin (chloride)] (10 µM)
inactive: PDPK1 = 0 | PIK4CA 0 | PIK4CB 0 | PLK1 = 0 | PRKAA1 = 0 | PRKCA 0 | PTK2 = 0 | PTK2B 0 | RAF1 = 0 | [1] 0 | RET 0 | [2] 0 | RIOK1 = 0 | RIPK1 = 0 | RIPK2 = 0 | ROR2 = 0 | RPS6KA1 = 0 | SPHK1 = 0 | SRC 0 | STK24 = 0

C[C@@H]1CCN(C(=O)CC#N)C[C@@H]1N(C)c1ncnc2[nH]ccc12 [Tofacitinib (citrate)] (10 µM)
inactive: PDPK1 = 0 | PIK4CA 0 | PIK4CB 0 | PLK1 = 0 | PRKAA1 = 0 | PRKCA 0 | PTK2 = 0 | RAF1 = 0 | [1] 0 | RET 0 | [2] 0 | RIOK1 = 0 | RIPK1 = 0 | RIPK2 = 0 | ROR2 = 0 | RPS6KA1 = 0 | SPHK1 = 0 | SRC 0 | STK24 = 0

Cc1cc(=O)oc2c(C=O)c(O)ccc12 (10 µM)
inactive: PDPK1 = 0 | PIK4CA 0 | PIK4CB 0 | PLK1 = 0 | PRKAA1 = 0 | PRKCA 0 | PTK2 = 0 | PTK2B 0 | RAF1 = 0 | [1] 0 | RET 0 | [2] 0 | RIOK1 = 0 | RIPK1 = 0 | RIPK2 = 0 | ROR2 = 0 | RPS6KA1 = 0 | SPHK1 = 0 | SRC 0 | STK24 = 0
